Assay: general procedure: solution-phase peptide synthesis
Conditions: late stage modification step, of theory

Substance	step yield
cyclo(-N-methyl-L-leucyl-D-thiolactyl-N-methyl-L-leucyl-D-4-nitrophenylthiolactyl-N-methyl-L-leucyl-D-thiolactyl-N-methyl-L-leucyl-D-4-nitrophenylthiolactyl-)	63.8% of theory
cyclo(-N-methyl-L-leucyl-D-thio-lactyl-N-methyl-L-leucyl-D4-N-morpholino-phenylthiolactyl-N-methyl-L-leucyl-D-thiolactyl-N-methyl-L-leucyl-D-4-N-morpholinophenylthiolactyl-)	70.0% of theory
cyclo (-N-mehtyl-L-leucyl-D-thiolactyl-N-methyl-L-leucyl-D-4-(fur-2-yl-methoxy)- phenylthiolactyl-N-methyl-L-leucyl-D-thiolactyl-N-methyl-L-leucyl-D-phenylthiolactyl-)	26.6% of theory
cyclo(-N-methyl-L-leucyl-D-thiolactyl-N-methyl-L-leucyl-D-4-N-morpholinophenyllactyl-N-methyl-L-leucyl-D-lactyl-N-methyl-L-leucyl-D4-N-morpholinophenyllactyl-)	16.8% of theory
cyclo(-N-methyl-L-leucyl-D-thiolactyl-N-methyl-L-leucyl-D-phenylthiolactyl-N-methyl-L-leucyl-D-thiolactyl-N-methyl-L-leucyl-D-phenylthiolactyl-)	43.6% of theory
cyclo(-N-methyl-L-leucyl-D-thiolactyl-N-methyl-L-leucyl-D-phenyllactyl-N-methyl-L-leucyl-D-lactyl-N-methyl-L-leucyl-D-phenyllactyl-)	11.8% of theory
cyclo (-N-methyl-L-leucyl-D-thiolactyl-N-methyl-L-leucyl-D4-(fur-2-yl-methoxy)-phenylthiolactyl-N-methyl-L-leucyl-D-thiolactyl-N-methyl-L-leucyl-D-4-(fur-2-yl-methoxy)-phenylthiolactyl-)	22.7% of theory
cyclo(-N-methyl-L-leucyl-D-thiolactyl-N-methyl-L-leucyl-D-4-(fur-2-yl-methoxy)-phenyllactyl-N-methyl-L-leucyl-D-lactyl-N-methyl-L-leucyl-D-4-(fur-2-yl-methoxy)-phenyllactyl-)	27.3% of theory
cyclo (-N-methyl-L-leucyl-D-thiolactyl-N-methyl-L-leucyl-D4-(pyrid-2-yl-methoxy)-phenylthiolactyl-N-methyl-L-leucyl-D-thiolactyl-N-methyl-L-leucyl-D-4-(pyrid-2-yl-methoxy)-phenylthiolactyl-)	30.9% of theory
cyclo(-N-methyl-L-leucyl-D-thiolactyl-N-methyl-L-leucyl-D4-(fur-2-yl-methoxy)-phenyllactyl-N-metbyl-L-leucyl-D-lactyl-N-metbyl-L-leucyl-D-phenyllactyl-)	11.4% of theory
cyclo(-N-methyl-L-leucyl-D-thiolactyl-N-methyl-Leucyl-D-4-nitrophenyllactyl-N-methyl-L-leucyl-D-lactyl-N-methyl-L-leucyl-D-4-nitrophenyllactyl-)	3.1% of theory
